Results are given in words; binding and its absence hold for the method and conditions named. Binding seen in cells or lysates may run through a third protein. Some binding calls cover weakened binding; strength is not graded here. Where a sequence is shown, tags or fusion partners need not be part of it.
Target: T1, GST-AP4B1 appendage (human) (UniProt Q9Y6B7)
T1 sequence: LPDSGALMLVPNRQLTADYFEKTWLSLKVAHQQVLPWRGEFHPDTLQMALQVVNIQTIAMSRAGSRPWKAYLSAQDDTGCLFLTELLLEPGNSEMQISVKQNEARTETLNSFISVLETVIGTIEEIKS
Experiment: pull-down; 50 µg GST fusion on glutathione sepharose 4B, cytosol of HeLa cells stably expressing GFP-RUSC2 or EGFP, 20 mM HEPES pH 7.5, 150 mM NaCl, 2 mM DTT, 1 h at 4 °C, washes with 0.5% NP-40, Western blot; only the target purified

Amino acid sequences for entries named in this document (tags omitted).
UniProt Q8N2Y8: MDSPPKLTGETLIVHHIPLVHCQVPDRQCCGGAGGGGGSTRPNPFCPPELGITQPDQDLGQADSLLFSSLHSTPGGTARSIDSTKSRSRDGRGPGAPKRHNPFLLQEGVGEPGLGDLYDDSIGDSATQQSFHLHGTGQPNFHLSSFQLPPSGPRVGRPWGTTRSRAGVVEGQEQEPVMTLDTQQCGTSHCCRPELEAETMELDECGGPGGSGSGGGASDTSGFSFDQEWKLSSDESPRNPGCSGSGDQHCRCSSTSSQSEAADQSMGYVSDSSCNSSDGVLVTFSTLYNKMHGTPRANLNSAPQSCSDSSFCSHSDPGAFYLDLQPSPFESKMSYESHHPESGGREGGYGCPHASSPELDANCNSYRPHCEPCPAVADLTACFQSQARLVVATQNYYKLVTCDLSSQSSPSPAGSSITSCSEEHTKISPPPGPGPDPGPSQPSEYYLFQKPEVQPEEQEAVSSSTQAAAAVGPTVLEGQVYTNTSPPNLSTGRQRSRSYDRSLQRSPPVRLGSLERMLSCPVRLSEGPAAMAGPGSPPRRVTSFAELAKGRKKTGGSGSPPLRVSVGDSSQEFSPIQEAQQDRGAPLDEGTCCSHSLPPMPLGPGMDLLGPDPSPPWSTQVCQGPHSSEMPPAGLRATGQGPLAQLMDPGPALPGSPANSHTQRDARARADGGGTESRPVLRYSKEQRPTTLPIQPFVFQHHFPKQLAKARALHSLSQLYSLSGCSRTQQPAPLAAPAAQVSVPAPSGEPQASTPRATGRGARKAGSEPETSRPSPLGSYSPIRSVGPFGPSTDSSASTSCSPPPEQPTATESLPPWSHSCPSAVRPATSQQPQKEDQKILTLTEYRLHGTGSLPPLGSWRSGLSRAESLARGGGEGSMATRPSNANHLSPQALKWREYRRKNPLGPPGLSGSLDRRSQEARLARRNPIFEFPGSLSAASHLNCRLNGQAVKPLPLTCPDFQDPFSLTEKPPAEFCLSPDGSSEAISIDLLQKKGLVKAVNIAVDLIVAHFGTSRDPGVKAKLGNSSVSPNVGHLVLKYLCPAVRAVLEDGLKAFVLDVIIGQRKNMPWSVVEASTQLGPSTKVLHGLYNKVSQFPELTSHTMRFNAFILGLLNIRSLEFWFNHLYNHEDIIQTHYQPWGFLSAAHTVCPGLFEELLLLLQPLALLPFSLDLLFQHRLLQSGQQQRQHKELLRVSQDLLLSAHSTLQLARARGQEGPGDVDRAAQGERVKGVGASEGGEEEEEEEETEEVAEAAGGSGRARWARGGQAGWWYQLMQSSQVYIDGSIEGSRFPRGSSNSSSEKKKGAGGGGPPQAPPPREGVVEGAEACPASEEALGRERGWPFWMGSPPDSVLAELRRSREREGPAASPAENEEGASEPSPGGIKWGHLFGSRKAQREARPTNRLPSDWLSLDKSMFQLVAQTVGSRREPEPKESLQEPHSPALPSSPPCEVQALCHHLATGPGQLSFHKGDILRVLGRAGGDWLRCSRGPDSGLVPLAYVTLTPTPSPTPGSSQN

binding: binds
Substance: GFP-RUSC2 (from UniProt Q8N2Y8 1-1516)

Source: publication PMC6160451
